{"source": "PubChem BioAssay AID445", "about": "(National Center for Advancing Translational Sciences (NCATS), 2006)", "note": "This is one part of the list. Further columns of the screen follow, without active or inactive calls. The list favours compounds with an active or inconclusive main result. Potencies come from curve fits of mixed quality, noted in brackets."}
{"assay": "IkB Signaling", "conditions": "ABC-DLBCL IkBa-CBG/CBR dual luciferase ratio (green luciferase fused to IkBa over red control in OCI-Ly3 lymphoma cells), 4 h; measured here: control luc red channel unless noted", "in_short": "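Curves were fitted separately to fusion (green), unfused (red) and ratio luminescence, then classed by r2, magnitude and activity. Cells: OCI-Ly3, 4 h compound plus doxycycline at 37C; 10 uM MG-132 defined full response.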"}
{"compound": "CCN(CC)CC(C)CNC(=O)c1cc(-c2ccc(Br)s2)nc2ccccc12", "note": "(stereo not given)", "AC50": "25.1 µM [falling, single point]"}
{"compound": "CCOC(=O)c1ccc(NS(=O)(=O)c2ccc3c(c2)n(C)c(=O)n3C)cc1", "AC50": "15.8 µM [falling, partial curve]"}
{"compound": "COc1ccc(C)cc1NC(=O)c1ccc2c(SCC(=O)O)c3c(nc2c1)CCCC3", "AC50": "15.8 µM [falling, partial curve]"}
{"compound": "Cn1c(=O)n(-c2ccc3c(c2)OCO3)c2nc(-c3ccccc3)nc(C(N)=O)c21", "AC50": "15.8 µM [rising, partial curve]"}
{"compound": "c1csc(CCNc2ncnc3sc4c(c23)CCC4)c1", "AC50": "15.8 µM [falling, partial curve]"}
{"compound": "COc1ccc(NC(=O)c2sc3nc[nH]c(=O)c3c2C)cc1Cl", "AC50": "0.00501 µM [rising, full curve, poor fit]"}
{"compound": "CCCC1=Nc2cc(C(=O)NC3CCCC3)ccc2Sc2ccc(C)cc21", "AC50": "794 nM [rising, full curve] [measured here: IkB-luc green channel]"}
{"compound": "Cc1cc(C)cc(NC(=O)CSc2cc(C)[nH]c(=O)n2)c1", "AC50": "39.8 µM [rising, single point]"}
{"compound": "COc1cc(CNC(=O)CCCC/C=C\\C(C)C)ccc1O", "AC50": "15.8 µM [falling, partial curve]"}
{"compound": "CN(c1ccc(O)cc1)c1nc(-c2ccccc2)cs1", "AC50": "20 µM [falling, partial curve, poor fit]"}
{"compound": "Cc1c(C)c2c(cc(C)c3c(-c4ccccc4)coc32)oc1=O", "AC50": "6.31 µM [rising, single point]"}
{"compound": "COc1ccccc1-n1ncc2c(=O)[nH]c(SCC(=O)Nc3ccc(Cl)cc3)nc21", "AC50": "31.6 µM [falling, single point]"}
{"compound": "CC12CC(NC(=O)N1c1cccc(C(=O)NCc3ccc4c(c3)OCO4)c1)c1cc(Cl)ccc1O2", "note": "(stereo not given)", "AC50": "7.94 µM [falling, partial curve]"}
{"compound": "Cc1csc(NC(=O)CCCSc2nc3ccccc3s2)n1", "AC50": "15.8 µM [falling, partial curve]"}
{"compound": "COc1cccc(-n2cc(C(=O)NCCc3ccc(C)cc3)c3ccccc3c2=O)c1", "AC50": "31.6 µM [falling, partial curve]"}
{"compound": "COc1ccc2oc(=O)c(-c3csc(-c4ccc(Br)cc4)n3)cc2c1", "AC50": "15.8 µM [rising, partial curve]"}
{"compound": "COc1ccc(-c2nc3c4ccccc4n(CC(=O)N4CCN(c5ccccc5OC)CC4)c(=O)n3n2)cc1", "AC50": "0.631 µM [falling, full curve]"}
{"compound": "O=S(=O)(NCc1ccc(F)cc1)c1ccc(-c2cnc(C3CC3)o2)cc1", "AC50": "39.8 µM [falling, single point]"}
{"compound": "O=C(Nc1cccc2nsnc12)c1cccs1", "AC50": "15.8 µM [falling, partial curve]"}
{"compound": "Cc1ccc(C(=O)c2cn(CC(=O)NC3CCCCC3)c3nc(C)ccc3c2=O)cc1", "AC50": "39.8 µM [falling, single point]"}
{"compound": "Cc1c(C(=O)N2CCCC2)oc2c1-c1nn(CC(=O)NCCCOC(C)C)cc1CC2", "AC50": "1.58 µM [falling, partial curve]"}
{"compound": "O=C(O)CC(C(=O)O)c1cn(Cc2ccccc2)c2ccccc12", "note": "(stereo not given)", "AC50": "3.98 µM [rising, single point]"}
{"compound": "CCSc1nnc2c(n1)OC(c1ccc(C)cc1)N(C(C)=O)c1ccccc1-2", "note": "(stereo not given)", "AC50": "31.6 µM [falling, partial curve]"}
{"compound": "COc1ccc(CNC(=O)CCCN2C(=O)CSc3c2c(C)nn3-c2ccccc2)c(OC)c1", "AC50": "20 µM [falling, partial curve]"}
{"compound": "O=C(COc1ccc2ccccc2c1)N1CCN(c2ccccc2O)CC1", "AC50": "25.1 µM [falling, partial curve]"}
{"compound": "Cc1ccc(-c2[nH]c3ccccc3c2SCCNC(=O)c2ccc(S(=O)(=O)N(C)C)cc2)cc1", "AC50": "5.01 µM [falling, full curve]"}
{"compound": "Cc1ccc(C)c(/C(O)=C2/C(=O)C(=O)N(CCN3CCOCC3)C2c2ccco2)c1", "note": "(stereo not given)", "AC50": "39.8 µM [rising, single point] [measured here: IkB-luc green channel]"}
{"compound": "COc1ccc(Cl)cc1NC(=O)CCS(=O)(=O)c1cccc2nonc12", "AC50": "0.316 µM [falling, full curve]"}
{"compound": "Cc1ccc(NC(=O)C(=O)NCC(c2cccnc2)N2CCOCC2)cc1Cl", "note": "(stereo not given)", "AC50": "10 µM [falling, partial curve]"}
{"compound": "Cn1nc(CC(=O)N2CCN(c3ccccc3)CC2)c2ccccc2c1=O", "AC50": "15.8 µM [falling, partial curve]"}
{"compound": "O=C(CSc1ncnc2c1cnn2-c1ccccc1Cl)N1CCN(C(=O)c2ccco2)CC1", "AC50": "31.6 µM [falling, partial curve]"}
{"compound": "Cc1c(CC(=O)N2CCCCC2)c(=O)oc2c(C)c3occ(C(C)(C)C)c3cc12", "AC50": "39.8 µM [falling, single point]"}
{"compound": "COc1ccc(Cl)cc1NC(=O)C1CCN(c2nnc(C)c3c(C)n(-c4ccccc4)nc23)CC1", "AC50": "25.1 µM [falling, partial curve]"}
{"compound": "Cc1ccc(CN2CCSc3ccc(C(=O)NCCc4ccccc4)cc32)cc1", "AC50": "10 µM [falling, partial curve]"}
{"compound": "O=CN1Cc2[nH]c3ccccc3c2N(c2ccc(Cl)cc2)C1=O", "AC50": "1 µM [falling, partial curve]"}
{"compound": "CN(C)c1cc2c(cc1NS(=O)(=O)c1ccccc1)n(C)c(=O)n2C", "AC50": "0.00794 µM [rising, full curve, poor fit]"}
{"compound": "Cc1cccc(N2CCN(C(=O)c3ccc(CS(=O)c4cccc(Cl)c4)o3)CC2)c1C", "note": "(stereo not given)", "AC50": "31.6 µM [falling, single point]"}
{"compound": "COCCn1c(C)cc(C(=O)CSc2nc(C)cc(C)c2C#N)c1C", "AC50": "31.6 µM [falling, partial curve]"}
{"compound": "COc1ccc(CN(C(=O)Nc2cccc(Cl)c2)c2ccccn2)cc1OC", "AC50": "0.0158 µM [rising, full curve]"}
{"compound": "O=C(C1CC1)N1CCc2cc(Br)cc(S(=O)(=O)NC3CCCCC3)c21", "AC50": "39.8 µM [falling, single point]"}
